This test addresses T1, PscD (PscD-SD, Cache sensor domain of chemoreceptor PscD) (Pseudomonas syringae, UniProt A0ABY1U976).
T1 construct: gene CFBP3846_03581; sensor domain, Gln31-Trp188, N-terminal His6 tag
T1 sequence (A0ABY1U976 31-188): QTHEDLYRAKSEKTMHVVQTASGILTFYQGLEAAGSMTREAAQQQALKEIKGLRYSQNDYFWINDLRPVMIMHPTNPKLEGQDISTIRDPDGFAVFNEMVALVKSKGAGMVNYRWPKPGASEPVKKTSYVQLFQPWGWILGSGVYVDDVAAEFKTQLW
Set-up: fluorescence thermal shift (SYPRO Orange) screen of Biolog PM1/PM2 compounds, delta Tm. The note with it: Biolog plate compound, exact concentration unknown; binder. The text has this: We used high-throughput fluorescence thermal shift (FTS) assays (as described previously[16]) to screen for potential ligands of PscD-SD. FTS assays are based on the principle that ligands stabilise proteins upon binding, causing an increase in the melting temperature of the protein[22][23]. Binding can therefore be rapidly screened by measuring the difference in the temperature midpoint of unfolding (ΔTm) of a protein in the presence and absence of potential ligands. In our FTS assays, the Tm was measured by monitoring an increase in fluorescence of a dye with affinity for hydrophobic parts of the protein (i.e. SYPRO Orange), which are exposed as the protein unfolds. We screened the recombinant PscD-SD protein in FTS assays against the compounds in Biolog Phenotype Microarray (PM) plates 1 and 2 (Supplementary Tables 1 and 2). Each plate contains 95 different compounds (e.g., organic acids, sugars) and a water (no ligand) control. […] The plate was covered with Lightcycler 480 sealing film (Roche Diagnostics) and fluorescence signal was monitored as the temperature was increased from 20 °C to 80 °C at a rate of 1.2 °C.min^−1 in a Lightcycler 480 (Roche Diagnostics). […] The first derivative values (−dF/dt) from the raw fluorescence data were used to determine the melting temperature (Tm). […]

The structures appear in SMILES notation.

`NCCC[C@H](N)C(=O)O` [L-Ornithine]: the “Δ Tm” value turned out to be 0.00 ± 0.00 °C.

(Values after article PMC5062169, “Structural basis for ligand recognition by a Cache chemosensory domain that mediates carboxylate sensing in Pseudomonas syringae” (Scientific Reports, 2016).)
